Experimental data reported in the supplement of paper PMC12823440, “Inhibitors supercharge kinase turnover through native proteolytic circuits” (Nature, 2025).
Where a name gives a salt, the structure may show the parent alone. The list shows a part of the results. The calls rarely recur for the same compound in another form.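 Kinases, fused to nanoluciferase, were expressed in K562 cells; luminescence was measured every 4 h from 2 to 18 h as percent of control (DMSO = 100%, positive control = 0%). A time point is decreased if signal falls significantly (2 sigma). Hits were called by the authors by a rule that is not shown; the count of time points alone does not decide it.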

By UniProt entry, the sequences of proteins in these tests, tags left out. Where a name states a change or a piece, a line headed by the entry shows the natural chain unless it says otherwise.
UniProt Q9Y6E0: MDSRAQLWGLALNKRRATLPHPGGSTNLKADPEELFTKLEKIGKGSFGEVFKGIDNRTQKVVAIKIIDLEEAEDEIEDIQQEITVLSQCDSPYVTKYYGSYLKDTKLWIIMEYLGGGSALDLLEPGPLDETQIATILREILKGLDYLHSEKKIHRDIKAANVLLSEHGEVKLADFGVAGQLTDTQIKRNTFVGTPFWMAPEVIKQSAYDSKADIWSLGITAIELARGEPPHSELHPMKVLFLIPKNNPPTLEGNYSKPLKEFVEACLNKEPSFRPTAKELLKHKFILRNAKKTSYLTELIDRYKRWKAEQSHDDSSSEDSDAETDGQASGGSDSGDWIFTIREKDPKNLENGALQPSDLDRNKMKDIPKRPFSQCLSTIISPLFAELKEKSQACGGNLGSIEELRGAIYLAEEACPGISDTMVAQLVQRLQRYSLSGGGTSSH

target: STK24 (UniProt Q9Y6E0); test: kinase-Nluc reporter destabilization hit call (1 = scored as downregulated) (binary); higher = compound decreases kinase abundance; settings: K562; 2-18 h

kinase-Nluc reporter destabilization hit call, inactive:
Cc1cc(C)nc(NS(=O)(=O)c2ccc(NC(=S)NC(=O)COc3ccc(Br)cc3Cl)cc2)n1 (2.5 µM) 0, Oc1ccc(/C=C/c2cc(O)cc(O)c2)cc1 [Resveratrol] (10 µM) 0, COc1ccc(S(=O)(=O)NCc2ccc(C(=O)NCCc3ccc(Cl)cn3)cc2)cc1 (10 µM) 0, O=c1[nH]c(C2CCCN2)nc2c1oc1ccc(Cl)cc12 (stereo not drawn) [XL413 (hydrochloride)] (10 µM) 0, O=C(NC1CCOCC1)c1ccc(-c2cc(-c3c[nH]nc3-c3ccccn3)ccn2)cc1 (10 µM) 0, N#Cc1c2nc3ccccc3nc2n2ccc(NC(=O)c3cccs3)cc12 (10 µM) 0, COCCNc1cc(NC(=O)N2CCCc3cc(CN4CCN(C)CC4=O)c(C=O)nc32)ncc1C#N [Roblitinib] (10 µM) 0, CN(C)CCC=C1c2ccccc2CCc2ccccc21 [Amitriptyline (hydrochloride)] (2.5 µM) 0, Cn1cc(C2=C(c3cn(CCCSC(=N)N)c4ccccc34)C(=O)NC2=O)c2ccccc21 [Ro 31-8220 (mesylate)] (2.5 µM) 0, CC(C)(C)n1nc(Cc2ccccc2O)c2c(N)ncnc21 (10 µM) 0, COc1cc2ncnc(Nc3ccc(F)c(Cl)c3)c2cc1NC(=O)/C=C/CN1CCCCC1 [Dacomitinib] (10 µM) 0, C[C@@H]1COCCN1c1nc(-c2cnc(N)cc2C(F)F)nc(N2[C@H](C)COC[C@@H]2C)n1 (2.5 µM) 0, COc1cc2ncnc(Nc3ccccc3)c2cc1OC (10 µM) 0, O=C(Nc1nc2ccccc2[nH]1)c1cccc([N+](=O)[O-])c1 [IRAK-4 protein kinase inhibitor 2] (10 µM) 0, Cc1ccc(Oc2nc3cc(-c4ccc(-c5ccccc5)cc4)c(Cl)cc3[nH]2)cc1C(=O)O (10 µM) 0, c1ccc(-c2nc3c(c(-n4ccc5cnccc54)n2)CCC3)nc1 (10 µM) 0, Cn1ncc2cc(-c3cnc(N)c(Cl)c3N3CCC4(CCNC4=O)CC3)ccc21 (10 µM) 0, C[C@H](Nc1ncnc2nc[nH]c12)c1cc2cccc(Cl)c2c(=O)n1-c1ccccc1 [Duvelisib] (10 µM) 0, CS(=O)(=O)c1ccc(-c2cnc(N)c(-c3ccc(C(F)(F)F)nc3)c2)cc1 (10 µM) 0, c1cc(NC2CCNCC2)nc(-c2cnc3ccccn23)c1 [IRAK inhibitor 1] (10 µM) 0, C[C@@H]1CCNC(=O)c2cc3ccc(C(=O)Nc4nc5ccccc5n4CCCN(C)C)cc3n21 (10 µM) 0, Cc1cnc(NC2CCOCC2)nc1-n1cnc(C(=O)N[C@H](CN)c2cc(F)cc(Cl)c2)c1 (10 µM) 0, O=C(NCc1cccc(O)c1)Nc1nc(-c2ccncc2)cs1 (10 µM) 0, Cc1cc2sc(NC(=O)Cc3ccccc3)nc2cc1Cl (10 µM) 0, COc1cc2ncnc(-n3nc(-c4ccccn4)nc3N)c2cc1OC (10 µM) 0, O=C(N[C@@H](C1CC1)C(F)(F)F)c1cc(-c2cnn3cc(-c4ccc(F)cc4)cnc23)cs1 (10 µM) 0, O=C1/C(=C\c2ccc(Cl)cc2)C=C(c2ccccc2)N1c1ccc(O)cc1 (2.5 µM) 0, CNC(=O)c1ccccc1Nc1nc(Nc2ccc3c(c2OC)CCC[C@H](N2CCN(CCO)CC2)C3)ncc1Cl (10 µM) 0, C=CC(=O)Nc1cccc(CNc2nc(Nc3ccc(N4CCN(C)CC4)cc3OC)ncc2Cl)c1 (10 µM) 0, CC(C)=CCc1c(-c2ccc(O)cc2O)oc2c3c(cc(O)c2c1=O)OC(C)(C)C=C3 [Morusin] (2.5 µM) 0, CN1CCC(c2ccccc2CC(C)(C)Nc2nc(N3CCOCC3)nc(-n3c(C(F)F)nc4ccccc43)n2)CC1 [Zandelisib] (10 µM) 0, CC(C)(O)[C@H]1CC[C@H](Nc2ccc3ncc(-c4cccc(C(F)(F)F)c4)n3n2)CC1 (10 µM) 0, CC(C)c1cc(/C=C(\C#N)C(=O)NCCCc2ccccc2)cc(C(C)C)c1O (10 µM) 0, CCOC(=O)N1C/C(=C/c2ccccc2F)C(=O)/C(=C\c2ccccc2F)C1 (2.5 µM) 0, C=CC(=O)Nc1cccc(-c2cccc3cnc(Nc4ccc(N5CCN(CCO)CC5)c(F)c4F)nc23)c1 [Olafertinib] (2.5 µM) 0, COc1cc(N2CCOCC2)ccc1Nc1ncc(Cl)c(Nc2ccccc2NS(C)(=O)=O)n1 (2.5 µM) 0, Nc1n[nH]c2nc(-c3ccc(NS(=O)(=O)c4cc(Cl)ccc4F)cc3)cnc12 (10 µM) 0, Nc1c(C(=O)NCc2ccc(C(=O)NCCCC3CCCCC3)cc2)cnn1-c1ccccc1 (2.5 µM) 0
